## Primary screen of a compound library

Values are the deposited “Percent Effect”, in %. The record does not define 0% and 100%; most values in the screen are far below 50% and negative numbers occur (in some assays of this library far below -100). Compounds were drawn at random from those tested, without regard to their results.

T. brucei: 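Whole-parasite assay of Trypanosoma brucei over 72 hours; the read-out is not stated. Compounds at 30 µM. Higher reads as stronger inhibition (inferred: compounds with an IC50 in retests scored well above the rest). Values scatter widely below zero; nearly all retest evidence comes from the higher of the two concentrations used. Of about 64,000 compounds tested this way, about 940 (1.5%) reached 50% or more in at least one test.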
Leishmania in macrophages: 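Cell assay of Leishmania donovani living inside macrophages; the read-out is not stated. Compounds at 30 µM. The record gives no direction; compounds that gave an IC50 in retests scored well above the rest, so higher reads as stronger inhibition. Of about 69,000 compounds tested this way, about 1,000 (1.5%) reached 50% or more in at least one test.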

Cc1cc(N(C)C)nc(C2COCCN2Cc2csc(C)n2)n1 (stereo not shown) read T. brucei: -11.85%; Leishmania in macrophages: -12.64%. COc1cc(CNCC(O)c2ccc(F)cc2F)cc2c1OCO2 (stereo not shown) read T. brucei: 68.01%; Leishmania in macrophages: 34.98%. CCC(=O)Nc1cccc(C(=O)NCCC2=CSC3=NCCCN23)c1 read T. brucei: -5.431%; Leishmania in macrophages: 34.81%. Cc1cccnc1C(=O)N1CCCC(Cc2cncc3ccccc23)C1 (stereo not shown) read T. brucei: 0.908%; Leishmania in macrophages: -10.78%. CCC(NC(=O)c1ccc(OC)nn1)c1nc(C(F)(F)F)cs1 (stereo not shown) read T. brucei: -35.19%; Leishmania in macrophages: 26.08%. Result for COc1cc(Cl)c(NC(=O)NCCn2cccc2)cc1OC was T. brucei: -27.53%; Leishmania in macrophages: 30.35%.

O=c1ccc(-c2cccs2)nn1CN1CCN(C2CCS(=O)(=O)C2)CC1 (stereo not shown) read T. brucei: -33.58%; Leishmania in macrophages: 21.4%. For COCCN1CCCC1c1cccc2c1OCCO2 (stereo not shown) the result was T. brucei: -11.42%; Leishmania in macrophages: -36.37%. CN1CCC(c2n[nH]c(=O)n2CC2CCCCC2)CC1 read Leishmania in macrophages: 22.76%. Result for CNC(=O)c1ccnc(N2CCCC(COc3cccc(C)c3)C2)c1 (stereo not shown) was T. brucei: -39.96%; Leishmania in macrophages: 30.74%. For COc1cccc(CC(=O)N2CCN(C)c3ncccc3C2)c1.O=C(O)C(F)(F)F the result was T. brucei: -43.52%; Leishmania in macrophages: 6.412%. Result for Cc1ccnc(NS(=O)(=O)c2cc(C(N)=O)n(C)c2)c1 was T. brucei: -48%; Leishmania in macrophages: 16.35%.

For CCc1nc2c(c(C)c(C)n2Cc2cccnc2)c(N)c1C the result was T. brucei: 5.837%; Leishmania in macrophages: 13.69%. Cc1ccsc1-c1nccn1CCN1CCCCC1CO (stereo not shown) gave T. brucei: -26.06%; Leishmania in macrophages: 32.51%. O=C(O)c1ccnc(SCc2ccccc2)c1 read T. brucei: -22.97%; Leishmania in macrophages: -2.566%. For c1cc(-c2noc([C@@H]3CCCN3C3CCC3)n2)cc(N2CCCC2)n1 the result was T. brucei: 3.122%; Leishmania in macrophages: 3.396%. With Br.Cc1ncc(C(=O)N2CCOC(C(=O)N3CCCCCC3)C2)c(C)n1 (stereo not shown) the screen gave T. brucei: -22.96%; Leishmania in macrophages: -22.58%. [H][C@]12CCN(C(=O)Cc3cccc(OC)c3)CC[C@@]1([H])S(=O)(=O)N(CC)C2 read T. brucei: 6.254%; Leishmania in macrophages: 8.093%.

With NC(=O)c1c(-c2ccc(Cl)cc2)csc1NC(=O)CCC(=O)O the screen gave T. brucei: -4.417%; Leishmania in macrophages: -1.922%. Result for [H][C@]12CCN(S(=O)(=O)c3ccc(F)cc3)[C@@]1([H])CC[C@@H](COCC)O2 was T. brucei: -30.45%; Leishmania in macrophages: 19.83%. O=S(=O)(CCO)CCc1ccccc1Cl read T. brucei: -9.846%; Leishmania in macrophages: -22.24%. For COc1cccc(CCC(=O)N2CCCC(c3nncn3C)C2)c1 (stereo not shown) the result was T. brucei: -8.5%; Leishmania in macrophages: -13.33%. For Cc1ccc(CN2CCC3(CCC(C(=O)N(C)C)O3)CC2)o1.O=C(O)C(F)(F)F (stereo not shown) the result was T. brucei: -8.589%; Leishmania in macrophages: -10.71%. CC(CO)(NC(=O)Nc1nncs1)C1CCCCC1 (stereo not shown) gave T. brucei: 7.099%; Leishmania in macrophages: 17.29%.

Cc1noc(C(C)Nc2ccc(N3CCOCC3)cc2C)n1 (stereo not shown) gave T. brucei: 14.13%; Leishmania in macrophages: -8.944%. With CCCc1nnc(NC(=O)N2CCCC2c2ccncc2)s1 (stereo not shown) the screen gave T. brucei: -16.2%; Leishmania in macrophages: -11.45%. With COCCN1CCCC(CN(C)c2nc3c(s2)c(C)nn3C)C1 (stereo not shown) the screen gave T. brucei: -0.9031%; Leishmania in macrophages: 9.334%. Result for CC1CCN(c2ncc(C#N)c(N)n2)CC1 was T. brucei: 9.885%; Leishmania in macrophages: 36.19%. With [H][C@@]12CN(C(=O)c3cscn3)C[C@]1([H])OCCN2Cc1csc(C)n1 the screen gave T. brucei: -91.81%; Leishmania in macrophages: 38.15%. CC(C)Cc1cc(CC2(NCc3ccccc3Cl)COC2)no1 read T. brucei: -6.108%; Leishmania in macrophages: 8.785%.

With O=C(NCC1CC1)C1CCC2(CN(C(=O)c3ccno3)C2)O1 (stereo not shown) the screen gave T. brucei: -31.27%; Leishmania in macrophages: 7.325%. For O=C1CC(c2ccccc2F)c2c(n3ccsc3nc2=O)N1 (stereo not shown) the result was T. brucei: 33.25%; Leishmania in macrophages: -0.5543%. Cc1nnc2n1CCN(C(=O)c1cc(Br)c[nH]1)C2 gave Leishmania in macrophages: 22.36%. COc1cccc2c1OCC(NC(=O)NC1CCN(C3CC3)CC1)C2 (stereo not shown) gave T. brucei: 19.33%; Leishmania in macrophages: 36%. For Cn1nccc1C(=O)N1CCOC(Cc2ccc(F)cc2)C1 (stereo not shown) the result was T. brucei: 21.25%; Leishmania in macrophages: 21.66%. Result for COCCN1CCC(c2nc3ccccc3[nH]2)CC1 was T. brucei: -10.36%; Leishmania in macrophages: 20.94%.

O=C(NCCCc1ccc(F)cc1)c1ccc(N2CCOCC2)cc1 read T. brucei: -9.739%; Leishmania in macrophages: 28.18%. CC1CN(c2ncccc2C(=O)N[C@@H]2CCCc3ccccc32)CCN1 (stereo partly shown) read T. brucei: -3.234%; Leishmania in macrophages: 40.91%. CCn1cc(C(=O)NCc2cccnc2N(C)Cc2ccccc2)cn1 gave T. brucei: -26.12%; Leishmania in macrophages: 27.54%. With CC(C)(CNC(=O)C1CCCN1S(C)(=O)=O)N1CCOCC1 (stereo not shown) the screen gave T. brucei: -23.24%; Leishmania in macrophages: 10.37%. Cc1cscc1C(=O)Nc1cncnc1N(C)C gave T. brucei: -28.23%; Leishmania in macrophages: 22.47%. For Br.Cc1ccc(OCCSC2=NCCN2)cc1 the result was T. brucei: 9.007%; Leishmania in macrophages: -10.23%.

Result for [H][C@@]12CCN(C(=O)c3cccs3)C[C@]1([H])OCCNC2=O was T. brucei: -94.28%; Leishmania in macrophages: 31.91%. Result for CC(C)c1n[nH]c(C2CN(C(=O)C3=COCC3)CCO2)n1 (stereo not shown) was T. brucei: 18.35%; Leishmania in macrophages: 20.04%.

Once more, the final 4:

| structure | T. brucei | Leishmania in macrophages |
|---|---|---|
| `Cc1cscc1C(=O)Nc1cncnc1N(C)C` | -28.23% | 22.47% |
| `Br.Cc1ccc(OCCSC2=NCCN2)cc1` | 9.007% | -10.23% |
| `[H][C@@]12CCN(C(=O)c3cccs3)C[C@]1([H])OCCNC2=O` | -94.28% | 31.91% |
| `CC(C)c1n[nH]c(C2CN(C(=O)C3=COCC3)CCO2)n1` (stereo not shown) | 18.35% | 20.04% |

The values are deposited in ChEMBL (CHEMBL3988442, “University of Dundee, Small-Polar-MMV Screening Library” (2021)).